In publication PMC11489182:
These are yes or no findings as the source states them, for the method shown. In cells and extracts the contact can be indirect. A yes stands for co-enrichment or nearness to the bait. Other partners may have been found. Sequences can lack the tags named with a protein.

Chains of the proteins cited; added tags and fusions are not shown.
UniProt P38936: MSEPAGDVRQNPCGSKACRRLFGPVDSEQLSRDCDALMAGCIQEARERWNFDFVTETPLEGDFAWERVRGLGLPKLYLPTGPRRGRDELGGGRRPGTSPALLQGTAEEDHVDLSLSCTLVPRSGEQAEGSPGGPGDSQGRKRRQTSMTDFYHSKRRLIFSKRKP

Biological target: T1, Flag-tagged full-length USP44 (ubiquitin-specific protease 44) (human) (UniProt Q9H0E7)
T1 sequence: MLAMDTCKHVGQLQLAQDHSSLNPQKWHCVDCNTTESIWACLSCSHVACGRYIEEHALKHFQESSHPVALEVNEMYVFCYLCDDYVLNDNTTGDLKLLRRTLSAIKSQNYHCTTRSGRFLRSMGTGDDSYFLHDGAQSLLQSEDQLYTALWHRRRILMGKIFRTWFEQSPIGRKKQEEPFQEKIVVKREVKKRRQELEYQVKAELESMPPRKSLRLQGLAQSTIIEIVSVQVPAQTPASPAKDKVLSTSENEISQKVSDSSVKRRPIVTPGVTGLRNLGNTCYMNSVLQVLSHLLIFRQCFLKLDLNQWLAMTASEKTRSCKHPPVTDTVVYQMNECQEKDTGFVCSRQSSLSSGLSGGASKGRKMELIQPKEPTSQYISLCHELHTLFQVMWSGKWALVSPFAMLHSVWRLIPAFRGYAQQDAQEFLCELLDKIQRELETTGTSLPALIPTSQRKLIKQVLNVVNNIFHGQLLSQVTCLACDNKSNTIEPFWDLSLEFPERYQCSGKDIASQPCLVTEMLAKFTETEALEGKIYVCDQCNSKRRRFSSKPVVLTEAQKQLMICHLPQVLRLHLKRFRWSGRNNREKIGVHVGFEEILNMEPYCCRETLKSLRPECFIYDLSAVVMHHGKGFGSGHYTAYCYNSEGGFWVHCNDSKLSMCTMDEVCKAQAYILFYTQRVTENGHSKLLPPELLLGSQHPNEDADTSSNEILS
Test: affinity purification with mass spectrometry; co-IP of Flag-tagged USP44 from cell lysate, co-precipitating proteins identified by LC-MS/MS

Substance: endogenous p21 protein (from UniProt P38936 1-164)
- binding: binds
